Data on 17 sequences can be found in the supplement of paper PMC10338343.

± gives the standard deviation. This is a selection; strong and weak results do not stand in their true shares. Many of these values have a large error.

This test deals with EfPiwi piRISC loaded with piRNA #1 (26 nt). As to the kind of experiment: pre-steady-state target cleavage rate (min^-1); guide: piRNA #1 5'p-UGAGGUAGUAGGUUGUAUAGUAUCCA; MIWI and MILI are mouse PIWI proteins and EfPiwi is from a freshwater sponge; tags in brackets are library labels; higher = faster piRNA-guided slicing of the target. The following applies: auxiliary factor: 500 nM Ephydatia muelleri Gtsf1. Put shortly: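 In Cleave-'n-Seq, a transcribed, DNA-blocked target RNA library (0.1 nM) was combined with 1 nM active affinity-purified piRISC bearing one synthetic guide, with or without 500 nM GTSF1 partner protein. Reactions ran in HEPES–potassium acetate buffer at 33 °C for 0–8 or 0–960 min. Uncleaved targets were sequenced and normalised to depth and to weakly complementary targets, three trials were pooled, and k3 was capped at 0.0001 min^-1. The pre-steady-state cleavage rate was obtained by fitting a burst-and-steady-state model.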
As to GGAGAGGAUACUAUGACAACCUACUACCUCA, the “pre-steady-state target cleavage rate” value turned out to be 0.102 ± 0.041.

Take GGAGACGAUACUAUACAACCACUACCUCA: the “pre-steady-state target cleavage rate” value stood at 0.00795 ± 0.0036.

In the case of GGAGACCUUACUAUACAACCUACCUACCUCA, the “pre-steady-state target cleavage rate” value is 0.0019 ± 0.0043.

Consider GGAGACCUUAGUAUACUACCUACUACCUCA, for which the “pre-steady-state target cleavage rate” value was found to be 0.0029 ± 0.0042.

Turning to GGAGACCUAACUAAACAACCUACUACCUCA, the “pre-steady-state target cleavage rate” value came out at 0.00631 ± 0.0031.

On to GGAGACCAUACUAUACAACGUACUACCUGA, for which the “pre-steady-state target cleavage rate” value was found to be 0.00457 ± 0.0027.

For GGAGACCUAUCUAUACAACCUACUACCUCCA, the “pre-steady-state target cleavage rate” value stood at 0.0208 ± 0.0083.

Regarding GGAGACCUAUGAUAUGUACCAACUACGUCA, the “pre-steady-state target cleavage rate” value was 0.00042 ± 0.012.

As for GGAGACCUAACUAUACAACCUACUACCAGA, the “pre-steady-state target cleavage rate” value came out at 0.00445 ± 0.0031.

Take GGAGACCUAUCUAUACAACGUACUACCUGA: the “pre-steady-state target cleavage rate” value was found to be 0.00325 ± 0.0035.

With GGAGACGAUACUAUACAAGCUACUACGUCA, the “pre-steady-state target cleavage rate” value stood at 0.00352 ± 0.0014.

GGAGACCUAACUAUACAACCUACUACCCUCA: the “pre-steady-state target cleavage rate” value is 0.00262 ± 0.0041.

GGAGACCUAACUAUACUACCUAGUACCUCA: the “pre-steady-state target cleavage rate” value was 0.000614 ± 0.0045.

Consider GGAGACGAUACUAUACAAGCUACUUCCUCA, for which the “pre-steady-state target cleavage rate” value came out at 0.00404 ± 0.0021.

Turning to GGAGACCAUACUAUACUACCUUCUACCUCA, the “pre-steady-state target cleavage rate” value came out at 0.00169 ± 0.0062.

In the case of GGAGACCUAUGAUAUGUUGCUACGACCUCA, the “pre-steady-state target cleavage rate” value amounted to 0.000893 ± 0.0086.

For the sequence GGAGACCUAUCUAUACUACCUACUACCUGA, the “pre-steady-state target cleavage rate” value is 0.00108 ± 0.0047.
